The assay has as its target recombinant murine CD40 protein (murine) (UniProt P27512). Briefly: ELISA, plate-bound CD40, detection with αCD40L and HRP detection antibody; dilution series [right panel].

Chains of the proteins cited; added tags and fusions are not shown. Residues count along the entry.
UniProt P27512, residues 24-193: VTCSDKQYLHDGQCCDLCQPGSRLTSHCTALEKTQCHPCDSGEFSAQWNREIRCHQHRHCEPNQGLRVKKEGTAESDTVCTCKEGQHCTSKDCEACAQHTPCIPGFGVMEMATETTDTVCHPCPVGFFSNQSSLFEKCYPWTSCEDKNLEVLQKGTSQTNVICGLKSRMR

These are yes or no findings as the source states them, for the method shown. Some results given as binding are weak or reduced against the parent protein; the word gives no strength.

B1: mCD40L Standard (ligand)
chain: MQRGDEDPQIAAHVVSEANSNAASVLQWAKKGYYTMKSNLVMLENGKQLTVKREGLYYVYTQVTFCSNREPSSQRPFIVGLWLKPSSGSERILLKAANTHSSSQLCEQQSVHLGGVFELQAGASVFVNVTEASQVIHRVGFSSFGLLKL
Turning to B1, the binding entry is “binds”.

The values above are taken from patent US20240368242A1.
